Drawing on PMC5997791, this text covers binding for 1 molecule.

No constants are given. Whether binding was seen depends on the method and setting. Binding seen in cells or lysates may run through a third protein. Some binding calls cover weakened binding; strength is not graded here.

This experiment concerns the target T1, NADPH oxidase p47phox (mouse (endogenous in RAW264.7)) (UniProt Q09014).
T1 sequence: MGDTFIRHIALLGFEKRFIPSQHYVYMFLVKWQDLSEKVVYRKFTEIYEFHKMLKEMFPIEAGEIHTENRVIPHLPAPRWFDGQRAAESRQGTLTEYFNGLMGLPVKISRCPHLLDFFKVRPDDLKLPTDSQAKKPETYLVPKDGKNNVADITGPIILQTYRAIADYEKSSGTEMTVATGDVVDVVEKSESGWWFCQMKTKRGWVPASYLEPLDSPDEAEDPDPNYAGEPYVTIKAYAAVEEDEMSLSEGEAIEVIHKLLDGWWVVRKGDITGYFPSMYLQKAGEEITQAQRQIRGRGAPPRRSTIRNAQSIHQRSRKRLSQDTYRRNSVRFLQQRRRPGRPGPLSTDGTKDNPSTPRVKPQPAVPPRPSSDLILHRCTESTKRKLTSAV
Kind of experiment: co-IP; RAW264.7 cells stimulated with different doses of oxLDL for 4 h or left untreated; NP-40 lysis buffer (50 mM HEPES pH 7.4, 150 mM NaCl, 1% NP-40, 1 mM EDTA); lysates incubated with anti-p47 protein A/G agarose beads overnight at 4°C; washed four times with lysis buffer with 300 mM NaCl added; Western blotting.

B1: caveolin-1 (protein, UniProt P49817 1-178)
chain: MSGGKYVDSEGHLYTVPIREQGNIYKPNNKAMADEVTEKQVYDAHTKEIDLVNRDPKHLNDDVVKIDFEDVIAEPEGTHSFDGIWKASFTTFTVTKYWFYRLLSTIFGIPMALIWGIYFAILSFLHIWAVVPCIKSFLIEIQCISRVYSIYVHTFCDPLFEAIGKIFSNIRISTQKEI
For the molecule B1, the binding entry is “binds”.
